Measured values as given in patent US20070258982A1.
Results are given in words; binding and its absence hold for the method and conditions named. Some binding calls cover weakened binding; strength is not graded here.

Experiments:
[1] = biological target: T1, murine IL-22 (murine) (UniProt Q9JJY9); experiment: sandwich ELISA of serum IL-22 in arthritic mice treated with 356A11
T1 sequence: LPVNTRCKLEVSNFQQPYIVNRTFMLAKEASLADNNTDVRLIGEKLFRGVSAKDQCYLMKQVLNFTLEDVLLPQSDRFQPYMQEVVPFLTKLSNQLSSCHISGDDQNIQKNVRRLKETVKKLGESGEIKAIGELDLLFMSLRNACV

[2] = biological target: T1, murine IL-22 (murine); experiment: real-time biospecific interaction analysis (BIA)
[3] = biological target: T1, murine IL-22 (murine); experiment: ELISA of serum IL-22 in psoriatic mice treated with 356A11
[4] = biological target: T1, murine IL-22 (murine); experiment: SPR (BIA)

Measured: binding

B1: 356A11 human monoclonal anti-IL-22 antibody (Examples 10, 11, 14, 15) (antibody, V domains shown)
VH: QVQLVQSGAEVKKPGASVKVSCKASGYTFTNYYMHWVRQAPGQGLEWVGWINPYTGSAFYAQKFRGRVTMTRDTSISTAYMELSRLRSDDTAVYYCAREPEKFDSDDSDVWGRGTLVTVSS
VL: QAVLTQPPSVSGAPGQRVTISCTGSSSNIGAGYGVHWYQQLPGTAPKLLIYGDSNRPSGVPDRFSGSKSGTSASLAITGLQAEDEADYYCQSYDNSLSGYVFGGGTQLTVLG
binds: [1] | [2] | [3] | [4]
